Among the data in ChEMBL document CHEMBL4513156, “CO-ADD screening of NCPRI (Romania) compounds” are Inhibition values, retold here.

The list shows a part of the results. Results with a measured potency or affinity are listed apart.

A word on the Inhibition: it is the relative decrease from the control value, in per cent.

For this experiment, the system named is Pseudomonas aeruginosa. The following applies: Concentration 32 ug.mL-1; ASSAY_TEST Inhibition of Bacterial Growth; detection method Absorption (OD600); MEDIA CAMHB; plate type 384well; NBS; CORNING #3640; time 18 hr.
On to `O=C(N/N=C/C[C@@H]1[C@@H](/C=N/NC(=O)c2ccncc2)[C@H](O)C[C@@H]1O)c1ccncc1`, for which the Inhibition was determined as 8.68%.

Consider `O=C(ON/N=C/[C@@H]1[C@@H]2C[C@H](Cl)[C@H]1C[C@H]2O)c1ccncc1`, for which the Inhibition is 11.34%.

For the molecule `O=C(NNC(c1ccccc1)(c1ccccc1)c1ccccc1)c1ccncc1`, the Inhibition is given as -2.72%.

On to `O=C(NNC(=O)c1cccc([N+](=O)[O-])c1C(=O)O)c1ccncc1`, for which the Inhibition was 10.43%.

With `O=C(NNC(=O)[C@@H]1C[C@H](C(=O)O)[C@@H]2CCC[C@@H]21)c1ccncc1`, the Inhibition is listed as 10.02%.

With `O=C(NN=CC[C@H]1[C@H](CO)[C@@H](O)C[C@H]1O)c1ccncc1`, the Inhibition was determined as 9.94%.

On to `COC(=O)CCCCCC[C@@H]1[C@@H](/C=N/NC(=O)c2ccncc2)[C@H](OC(=O)c2ccccc2)C[C@@H]1O`, for which the Inhibition came out at 9.99%.

Turning to `O=C(N/N=C/C[C@@H]1[C@@H](CO)[C@H](O)C[C@@H]1O)c1ccncc1`, the Inhibition stood at 12.52%.

For `O=C(NNC(=O)c1ccc([N+](=O)[O-])cc1C(=O)O)c1ccncc1`, the Inhibition was found to be 10.8%.

For `CC(C)(C)[Si](C)(C)O[C@H](/C=C/[C@@H]1[C@@H](CC=NNC(=O)c2ccncc2)[C@@H](O)C[C@H]1O[Si](C)(C)C(C)(C)C)CCc1ccccc1`, the Inhibition was 3.71%.

Turning to `O=C(N/N=C1/C[C@@H]2[C@@H](C(=O)O)[C@H]1C[C@H]2Cl)c1ccncc1`, the Inhibition is given as 12.53%.

Turning to `O=C1C[C@H]2[C@H](/C=N/NC(=O)c3ccncc3)[C@H](C[C@@H]2Cl)O1`, the Inhibition came to 14.48%.

In the case of `O=C(NNC(=O)[C@@H]1C[C@H](C(=O)O)[C@@H]2CC=C[C@@H]21)c1ccncc1`, the Inhibition was determined as 10.12%.

For `O=C1C[C@@H]2[C@@H](C=NNC(=O)c3ccncc3)[C@@H](C[C@H]2Cl)O1`, the Inhibition was 14.29%.

On to `O=C(N/N=C1\CC[C@@H]2[C@H]1[C@H](OC(=O)c1ccccc1)C[C@@H]2OC(=O)c1ccccc1)c1ccncc1`, for which the Inhibition was found to be 9.12%.

For `COC(=O)CCCCCC[C@@H]1[C@@H](/C=N/NC(=O)c2ccncc2)[C@H](O)C[C@@H]1O`, the Inhibition turned out to be 7.13%.

On to `O=C(N/N=C1\C[C@@H]2[C@H](COC(c3ccccc3)(c3ccccc3)c3ccccc3)C[C@H](CO)[C@@H]2C1)c1ccncc1`, for which the Inhibition is given as 1.84%.

With `O=C(N/N=C/CCCO)c1ccncc1`, the Inhibition worked out at 3.52%.

For `O=C(N/N=C1\C[C@@H]2[C@@H](CO)[C@H]1C[C@H]2Cl)c1ccncc1`, the Inhibition turned out to be 7.54%.

Take `O=C(NN=CC[C@@H]1[C@@H](COC2CCCCO2)[C@H](OC2CCCCO2)C[C@@H]1O)c1ccncc1` (some centres not stated): the Inhibition was determined as 7.45%.

As for `O=C(N/N=C/C[C@@H]1[C@@H](/C=C/[C@@H](O)COc2ccccc2)[C@H](O)C[C@@H]1O)c1ccncc1`, the Inhibition turned out to be 5.39%.

For `COC(=O)C[C@H]1[C@H](/C=N\NC(=O)c2ccncc2)[C@@H](O[Si](C)(C)C(C)(C)C)C[C@@H]1Cl`, the Inhibition stood at 14.32%.

Consider `O=C(N/N=C1/C2C[C@H]3C(C2CO)[C@H]13)c1ccncc1` (some centres not stated), for which the Inhibition came out at 10.32%.

As to `O=C(N/N=C/COc1cccc(Cl)c1)c1ccncc1`, the Inhibition was found to be 5.17%.

In the case of `NNC(=O)c1ccncc1` [ISONIAZID], the Inhibition was 12.59%.

With `O=C(N/N=C1/C2C[C@H]3C(C2C(=O)O)[C@@H]13)c1ccncc1` (some centres not stated), the Inhibition came out at 7.48%.

Consider `CC(C)(C)[Si](C)(C)OC[C@H]1[C@H](CC=NNC(=O)c2ccncc2)[C@H](O)C[C@@H]1O[Si](C)(C)C(C)(C)C`, for which the Inhibition was 13.2%.

Regarding `O=C(NN=CC[C@@H]1[C@@H](/C=C/[C@@H](O)CCc2ccccc2)[C@H](OC(=O)c2ccccc2)C[C@@H]1O)c1ccncc1`, the Inhibition was 4.08%.

With `O=C(NN=C[C@H]1[C@@H]2CCO[C@@H]2C[C@@H]1O)c1ccncc1`, the Inhibition is on record as 4.35%.

`O=C(N/N=C/[C@@H]1C[C@H](CO)[C@@H]2CCC[C@@H]21)c1ccncc1`: the Inhibition was determined as 11.04%.

Regarding `O=C(N/N=C/C[C@@H]1[C@@H](/C=C/[C@@H](O)COc2cccc(Cl)c2)[C@H](O)C[C@@H]1O)c1ccncc1`, the Inhibition worked out at 8.91%.

As to `CC(C)(C)[Si](C)(C)OCC1C2C[C@H]3C1[C@@H]3/C2=N/NC(=O)c1ccncc1` (some centres not stated), the Inhibition is reported as 4.45%.

With `O=C(N/N=C1/C[C@H]2[C@H](CO)[C@@H]1C[C@@H]2Cl)c1ccncc1`, the Inhibition is on record as 9.04%.

With `O=C(N/N=C1/C[C@@H]2[C@H](C1)[C@H](OC(=O)c1ccccc1)C[C@@H]2OC(=O)c1ccccc1)c1ccncc1`, the Inhibition is reported as 10.82%.

As for `O=C(NN=CC[C@@H]1[C@@H](/C=C/[C@@H](O)CCc2ccccc2)[C@H](O)C[C@@H]1O)c1ccncc1`, the Inhibition stood at 5.13%.

Consider `O=C(NN=C[C@H]1[C@H]2CC(O)OC[C@H]2C[C@H]1O)c1ccncc1` (some centres not stated), for which the Inhibition came out at 3.75%.

With `O=C(N/N=C1/C[C@@H]2[C@H](COC(c3ccccc3)(c3ccccc3)c3ccccc3)C[C@H](COC(c3ccccc3)(c3ccccc3)c3ccccc3)[C@@H]2C1)c1ccncc1`, the Inhibition came to 0.62%.
